{
  "source": "the supplement of paper PMC3334620",
  "note": "The full ranking holds about 33,000 sequences; the median of “E-score (-0.5 to 0.5)” is about -0.016, and the highest 2% start at about 0.3. This is one part of the list.",
  "data": [
    {"molecular_target": "T1, Yer184c (UniProt P39961)", "T1 sequence": "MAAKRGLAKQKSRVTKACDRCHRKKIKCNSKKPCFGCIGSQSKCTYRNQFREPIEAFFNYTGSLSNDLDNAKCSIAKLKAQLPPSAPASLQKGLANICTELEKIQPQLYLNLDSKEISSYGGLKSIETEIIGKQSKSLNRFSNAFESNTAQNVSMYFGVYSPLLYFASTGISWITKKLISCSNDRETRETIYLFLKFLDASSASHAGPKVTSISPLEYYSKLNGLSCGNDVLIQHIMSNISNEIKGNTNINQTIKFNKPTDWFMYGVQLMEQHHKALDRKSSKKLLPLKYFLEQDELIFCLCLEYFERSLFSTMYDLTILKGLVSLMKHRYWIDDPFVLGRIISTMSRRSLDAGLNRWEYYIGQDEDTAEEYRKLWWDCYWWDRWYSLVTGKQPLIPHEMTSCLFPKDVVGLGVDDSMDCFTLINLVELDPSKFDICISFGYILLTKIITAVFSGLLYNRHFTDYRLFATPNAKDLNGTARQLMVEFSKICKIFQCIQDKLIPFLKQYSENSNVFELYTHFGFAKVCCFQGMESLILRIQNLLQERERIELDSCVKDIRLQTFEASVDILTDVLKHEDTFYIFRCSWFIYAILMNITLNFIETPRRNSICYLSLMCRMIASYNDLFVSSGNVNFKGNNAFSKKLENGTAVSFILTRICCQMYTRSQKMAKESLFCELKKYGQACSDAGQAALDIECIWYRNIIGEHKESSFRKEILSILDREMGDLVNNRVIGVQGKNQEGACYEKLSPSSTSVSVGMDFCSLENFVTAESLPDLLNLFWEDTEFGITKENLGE", "assay": "PBM E-score (8-mer binding enrichment) (E-score (-0.5 to 0.5)); higher = stronger / more preferred TF binding", "settings": "protein concentration: 100 nM; construct: GST-full length", "summary_of_the_method": "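Yeast transcription factors carrying a GST tag, as full-length proteins or DNA-binding domains, were produced by PURExpress in vitro transcription/translation. About 100-200 nM protein was applied to universal all-10-mer Agilent arrays, double-stranded by primer extension on fresh or once-stripped slides. Bound protein was detected with fluorescent anti-GST, and scans were normalised with masliner. The Universal PBM Analysis Suite gave each ungapped eight-base word, pooled with its reverse complement, an E-score, a modified Wilcoxon-Mann-Whitney statistic.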", "values": [
      {"sequence": "TATCACAA", "PBM E-score": 0.0158},
      {"sequence": "CGTGTCCA", "PBM E-score": -0.144},
      {"sequence": "ATGTCGTA", "PBM E-score": -0.107},
      {"sequence": "AGAACCTG", "PBM E-score": -0.146},
      {"sequence": "GATTAAAC", "PBM E-score": 0.219},
      {"sequence": "TAACGATA", "PBM E-score": 0.138},
      {"sequence": "AGGGCGGA", "PBM E-score": -0.0938},
      {"sequence": "ACCAAGTG", "PBM E-score": -0.2},
      {"sequence": "AGGGACTC", "PBM E-score": -0.235},
      {"sequence": "TGATCGAA", "PBM E-score": 0.086},
      {"sequence": "GTCGGCGA", "PBM E-score": 0.134},
      {"sequence": "CAGCTCAG", "PBM E-score": -0.321},
      {"sequence": "AATGGTGT", "PBM E-score": 0.00115},
      {"sequence": "CCTGTCCC", "PBM E-score": -0.0502},
      {"sequence": "ATATTTCC", "PBM E-score": 0.177},
      {"sequence": "TATGCCGA", "PBM E-score": 0.28},
      {"sequence": "ATGTAGTC", "PBM E-score": 0.01},
      {"sequence": "CACTACAG", "PBM E-score": 0.149},
      {"sequence": "GGTAACCA", "PBM E-score": -0.155},
      {"sequence": "CGGAGTAC", "PBM E-score": 0.0421},
      {"sequence": "GCTTTGAA", "PBM E-score": 0.0482},
      {"sequence": "TGATCCCA", "PBM E-score": -0.0966},
      {"sequence": "ATTGTGGA", "PBM E-score": -0.0507},
      {"sequence": "CGTGGAAC", "PBM E-score": -0.0508},
      {"sequence": "ACGTGAAC", "PBM E-score": -0.128},
      {"sequence": "CAGATGCC", "PBM E-score": -0.144},
      {"sequence": "CCATTCAG", "PBM E-score": 0.0599},
      {"sequence": "GACGGGGA", "PBM E-score": -0.153},
      {"sequence": "CGCGGGCC", "PBM E-score": 0.126},
      {"sequence": "AGGTCCTA", "PBM E-score": -0.191},
      {"sequence": "GCTTGGTA", "PBM E-score": -0.139},
      {"sequence": "CATGGTAC", "PBM E-score": -0.223},
      {"sequence": "GGATGGGA", "PBM E-score": -0.218},
      {"sequence": "AAAAGCCA", "PBM E-score": 0.235},
      {"sequence": "CCCGCAGG", "PBM E-score": -0.136},
      {"sequence": "TAGTACAA", "PBM E-score": 0.0477},
      {"sequence": "CCCGTGAG", "PBM E-score": 0.00384},
      {"sequence": "CTGATCAC", "PBM E-score": -0.176},
      {"sequence": "AAGAACGA", "PBM E-score": 0.138},
      {"sequence": "CACTTCTA", "PBM E-score": -0.133},
      {"sequence": "CATCGGGG", "PBM E-score": -0.161},
      {"sequence": "AAAGGCTG", "PBM E-score": -0.153},
      {"sequence": "TCGGTACA", "PBM E-score": 0.143},
      {"sequence": "CGCACTTA", "PBM E-score": 0.114},
      {"sequence": "ACGTCAGG", "PBM E-score": -0.268},
      {"sequence": "GGCGCGAC", "PBM E-score": 0.133},
      {"sequence": "AGAAAGTA", "PBM E-score": 0.131},
      {"sequence": "CCGTGCAC", "PBM E-score": -0.0231},
      {"sequence": "AAATGCCA", "PBM E-score": 0.0215},
      {"sequence": "ACGTCAAG", "PBM E-score": -0.124},
      {"sequence": "AAGGCACA", "PBM E-score": 0.112},
      {"sequence": "GGTCATAA", "PBM E-score": 0.17},
      {"sequence": "CCTCCCCC", "PBM E-score": -0.445},
      {"sequence": "GTGCTCAA", "PBM E-score": 0.0765},
      {"sequence": "CATCGAGG", "PBM E-score": -0.158},
      {"sequence": "AGTGCCCC", "PBM E-score": -0.299},
      {"sequence": "ACCCACTA", "PBM E-score": 0.0867},
      {"sequence": "TAGGGTAA", "PBM E-score": 0.0891},
      {"sequence": "CGCCATTC", "PBM E-score": 0.0678},
      {"sequence": "ATCATGAT", "PBM E-score": 0.22},
      {"sequence": "ACGTGAAA", "PBM E-score": 0.0976},
      {"sequence": "AGCGTACC", "PBM E-score": -0.151},
      {"sequence": "CCCGAATC", "PBM E-score": 0.104},
      {"sequence": "TCGCCTCA", "PBM E-score": 0.0662},
      {"sequence": "GTATGCGA", "PBM E-score": 0.13},
      {"sequence": "AATCAATC", "PBM E-score": 0.0212},
      {"sequence": "CTCCGTTA", "PBM E-score": 0.175},
      {"sequence": "GATGTTAA", "PBM E-score": -0.0626},
      {"sequence": "ACAGATAA", "PBM E-score": 0.00025},
      {"sequence": "ACGTGTAA", "PBM E-score": -0.00799},
      {"sequence": "AAGCGCAG", "PBM E-score": 0.0135},
      {"sequence": "CAAGGACC", "PBM E-score": -0.0359},
      {"sequence": "ATCCTCCC", "PBM E-score": -0.163},
      {"sequence": "CATTACCA", "PBM E-score": -0.0623},
      {"sequence": "AGGCGGGG", "PBM E-score": -0.197},
      {"sequence": "TCCCAGAA", "PBM E-score": -0.115},
      {"sequence": "TCTCTCCA", "PBM E-score": -0.0609},
      {"sequence": "CCTTACTA", "PBM E-score": -0.0138},
      {"sequence": "ACACTGTA", "PBM E-score": -0.076},
      {"sequence": "ATTATTTA", "PBM E-score": 0.292},
      {"sequence": "ATATTCGA", "PBM E-score": -0.0655},
      {"sequence": "ATTCCTGA", "PBM E-score": -0.0117},
      {"sequence": "AAATGACA", "PBM E-score": -0.0662},
      {"sequence": "CTGCTACA", "PBM E-score": 0.099},
      {"sequence": "CGCGGAGA", "PBM E-score": 0.308},
      {"sequence": "CCGTGTCA", "PBM E-score": 0.168}
    ]}
  ]
}
